Test results taken from patent US20080254024A1 (Genentech, published 2008).
Results are given in words; binding and its absence hold for the method and conditions named. Some results given as binding are weak or reduced against the parent protein; the word gives no strength. Where a sequence is shown, tags or fusion partners need not be part of it.

Columns and labels:
[1] = biological target: NH2-terminal GD epitope-tagged human EphB2 overexpressed on cells (HT1080-EphB2, SVT2-EphB2) (human) (UniProt P29323); assay: flow cytometry on HT1080 cells overexpressing EphB2, detection with FITC-conjugated anti-human Fc
[2] = biological target: T1, EphB2 ligand binding domain construct ss.EphB2LBD.gD.GPI (amino acids 19 to 208 of human EphB2) on transiently transfected 293 cells (human) (UniProt P29323); assay: FACS on ss.EphB2LBD.gD.GPI-293 cells, FITC anti-human IgG Fc detection
T1 sequence (chain, COOH-terminal GPI linker): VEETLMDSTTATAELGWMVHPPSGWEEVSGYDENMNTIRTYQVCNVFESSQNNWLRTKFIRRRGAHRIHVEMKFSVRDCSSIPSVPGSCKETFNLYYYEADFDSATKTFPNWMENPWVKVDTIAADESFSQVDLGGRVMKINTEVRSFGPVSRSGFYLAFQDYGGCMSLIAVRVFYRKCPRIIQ

[3] = biological target: T1, EphB2 ligand binding domain construct ss.EphB2LBD.gD.GPI (amino acids 19 to 208 of human EphB2) on transiently transfected 293 cells (human); assay: FACS on ss.EphB2LBD.gD.GPI-293 cells

Measured: binding

B1: ephrin-B1-Fc fusion protein (Fc fusion, human, UniProt P98172 28-237, looked up, not shown: a dimerising Fc or GST)
chain: LAKNLEPVSWSSLNPKFLSGKGLVIYPKIGDKLDIICPRAEAGRPYEYYKLYLVRPEQAAACSTVLDPNVLVTCNRPEQEIRFTIKFQEFSPNYMGLEFKKHHDYYITSTSNGSLEGLENREGGVCRTRTMKIIMKVGQDPNAVTPEQLTTSRPSKEADNTVKMATQAPGSRGSLGDSDGKHETVNQEEKSGPGASGGSSGDPDGFFNSK
binds: all assays above
